Reference: patent US20100184668A1
No constants are given. Whether binding was seen depends on the method and setting. In cells and extracts the contact can be indirect. A result given as binding can be weak or reduced; the word gives no strength. Sequences can lack the tags named with a protein.

What was measured:
[1] = target: GST-CD36 fusion protein spanning amino acids 5-143 of CD36; test: GST pull-down on glutathione sepharose beads from conditioned medium, Western blot
[2] = target: GST-CD36 fusion protein spanning amino acids 5-143 of CD36; test: GST pull-down, Western blot (FIG. 5C)
[3] = target: GST-CD36 fusion protein spanning amino acids 5-143 of CD36; test: GST pull-down (FIGS. 5A-5C)

Measured: binding

B1: Vasculostatin 120 (Vstat120), myc/his-tagged, secreted into conditioned medium (protein, not shown: small tags and cut ends)
chain: GADAGPGPEPCATLVQGKFFGYFSAAAVFPANASRCSWTLRNPDPRRYTLYMKVAKAPVPCSGPGRVRTYQFDSFLESTRTYLGVESFDEVLRLCDPSAPLAFLQASKQFLQMRRQQPPQHDGLRPRAGPPGPTDDFSVEYLVVGNRNPSRAACQMLCRWLDACLAGSRSSHPCGIMQTPCACLGGEAGGPAAGPLAPRGDVCLRDAVAGGPENCLTSLTQDRGGHGATGGWKLWSLWGECTRDCGGGLQTRTRTCLPAPGVEGGGCEGVLEEGRQCNREACGPAGRTSSRSQSLRSTDARRREELGDELQQFGFPAPQTGDPAAEEWSPWSVCSSTCGEGWQTRTRFCVSSSYSTQCSGPLREQRLCNNSAVCPVHGAWDEWSPWSLCSSTCGRGFRDRTRTCRPPQFGGNPCEGPEKQTKFCNIALCPGRAVDGNWNEWSSWSACSASCSQGRQQRTRECNGPSYGGAECQGHWVETRDCFLQQCPVDGKWQAWASWGSCSVTCGAGSQRRERVCSGPFFGGAACQGPQDEYRQCGTQRCPEPHEICDEDNFGAVIWKETPAGEVAAVRCPRNATGLILRRCELDEEGIAYWEPPTYIRCVSIDYRNIQMMTREHLAKAQRGLPGEGVSEVIQTLVEISQDGTSYSGDLLSTIDVLRNMTEIFRRAYYSPTPGDVQNFVQILSNLLAEENRDKWEEAQLAGPNAKELFRLVEDFVDVIGFRMKDLRDAYQVTDNLVLSIHKLPASGATDISFPMKGWRATGDWAKVPEDRVTVSKSVFSTGLTEADEASVFVVGTVLYRNLGSFLALQRNTTVLNSKVISVTVKPPPRSLRTPLEIEFAHMYNGTTNQTCILWDETDVPSSSAPPQLGPWSWRGCRTVPLDALRTRCLCDRL
binds: [1] | [2] | [3]
